Results are given in words; binding and its absence hold for the method and conditions named. For part of these data: A result given as binding can be weak or reduced; the word gives no strength.

For assay [1], the target named is T1, human MET ECD (human, UniProt P08581 25-932).
T1 construct: range 1-932; recombinant ECD made by standard protein engineering; also called hMET; human MET extracellular domain
The experiment in a line: SPR and ELISA. A general note: In an ELISA, binding on a coated surface is turned into a signal by an enzyme label.

Assay [2] addresses T2, mouse MET ECD (mouse, UniProt P16056 25-931).
T2 construct: range 1-931; recombinant ECD; also called mMET; mouse MET extracellular domain
As to the kind of experiment: SPR and ELISA.

Assay [3] concerns the target T1, human MET ECD. The experiment in a line: ELISA on MET ECD.
The target of assay [4] is T2, mouse MET ECD. The experiment in a line: ELISA on MET ECD.
Assay [5] concerns the target llama-human chimeric MET ECD CH5. As to the kind of experiment: ELISA on MET chimera.
Assay [6] addresses llama-human chimeric MET ECD CH4. The experiment in a line: ELISA on MET chimera.
The target in assay [7] is T1, human MET ECD. As to the kind of experiment: ELISA on MET ECD (FIG. 29).
Assay [8] deals with T2, mouse MET ECD. As to the kind of experiment: ELISA on MET ECD (FIG. 29).
Assay [9] has as its target T1, human MET ECD. The experiment in a line: ELISA: MET ECD immobilized (100 ng/well), mAb in human IgG1/lambda format in solution (0-40 nM), HRP anti-human Fc.
Assay [10] deals with T2, mouse MET ECD. The assay is described as above.
In assay [11] the target is llama MET ECD (llama). The experiment in a line: ELISA on llama MET ECD.
For assay [12], the target named is llama-human chimeric MET ECD CH2. The experiment in a line: ELISA on MET ECD or chimera.
The target of assay [13] is T1, human MET ECD. As to the kind of experiment: ELISA on MET ECD or chimera.
For assay [14], the target named is llama-human chimeric MET ECD CH3. The experiment in a line: ELISA on MET ECD or chimera.
Assay [15] has as its target human-llama chimeric MET ECD CH7. The experiment in a line: ELISA on MET ECD or chimera.
In assay [16] the target is llama-human chimeric MET ECD CH1. As to the kind of experiment: ELISA on MET ECD or chimera.
Assay [17] deals with human-llama chimeric MET ECD CH6. As to the kind of experiment: ELISA on MET ECD or chimera.

B1: 71A3 Fab (Fab, V domains shown)
VH: EVQLVESGGGLVQPGGSLRLSCAASGFSFKDYDITWVRQAPGKGLEWVSTITSRSGSTSYVDSVKGRFTISGDNAKNTLYLQMNSLKPEDTAVYYCAKVYATTWDVGPLGYGMDYWGKGTLVTVSS
VL: SYELTQPSALSVTLGQTAKITCQGGSLGSSYAHWYQQKPGQAPVLVIYDDDSRPSGIPERFSGSSSGGTATLTISGAQAEDEGDYYCQSADSSGNAAVFGGGTHLTVL
For the molecule B1, the binding entry in [1] and in assay [2] was “binds” each time.

B2: 76G7 Fab (Fab, V domains shown)
VH: QVQLVESGGNLVQPGGSLRLSCAASGFTFSNYYMSWVRQAPGKGLEWVSDIYSDGSTTWYSDSVKGRFTISRDNAKNTLSLQMNSLKSEDTAVYYCARVKIYPGGYDAWGQGTQVTVSS
VL: QAGLTQPPSVSGSPGKTVTISCAGNSSDVGYGNYVSWYQQFPGMAPKLLIYLVNKRASGITDRFSGSKSGNTASLTISGLQSEDEADYYCASYTGSNNIVFGGGTHLTVL
As for B2, the binding result in [1] and in [2] was “binds” throughout.

B3: 71G2 Fab (Fab, V domains shown)
VH: EVQLQESGGGLVQPGGSLRLSCAASGFTFSIYDMSWVRQAPGKGLEWVSTINSDGSSTSYVDSVKGRFTISRDNAKNTLYLQMNSLKPEDTAVYYCAKVYGSTWDVGPMGYGMDYWGKGTLVTVSS
VL: SSALTQPSALSVSLGQTARITCQGGSLGSSYAHWYQQKPGQAPVLVIYGDDSRPSGIPERFSGSSSGGTATLTISGAQAEDEDDYYCQSTDSSGNTVFGGGTRLTVL
In the case of B3, the binding entry in [1] and in assay [2] was “binds” in each case.

B4: 71C3 llama-human chimeric mAb (human IgG1/lambda) (antibody, V domains shown)
VH: QLQLVESGGGLVQPGGSLRLSCAASGFTFSSHAMSWVRQAPGKGLEWVSAINSGGGSTSYADSVKGRFTISRDNAKNTLYLQMNSLKPEDTAVYYCAKELRFDLARYTDYEAWDYWGQGTQVTVSS
VL: SYELTQPSALSVTLGQTAKITCQGGSLGSSYAHWYQQKPGQAPVLVIYDDDSRPSGIPERFSGSSSGGTATLTISGAQAEDEGDYYCQSADSSGNAAVFGGGTHLTVLQ
On to B4, for which the binding result in assay [3] is listed as “binds”; in [4], “binds”; in assay [5], “no binding (tested: 0-20 nM)”; in assay [6], “no binding (tested: 0-20 nM)”; in assay [7], “binds”; in [8], “binds”. For the same molecule, the binding entry in [9] is reported as “binds”; in assay [10], “binds”; in assay [11], “no binding (tested: 0-20 nM)”; in [12], “binds”; in assay [13], “binds”; in [14], “binds”. The binding result in [15], in [16] and in assay [17] was “binds” each time.

B5: 71C3 Fab (Fab, V domains shown)
VH: QLQLVESGGGLVQPGGSLRLSCAASGFTFSSHAMSWVRQAPGKGLEWVSAINSGGGSTSYADSVKGRFTISRDNAKNTLYLQMNSLKPEDTAVYYCAKELRFDLARYTDYEAWDYWGQGTQVTVSS
VL: SYELTQPSALSVTLGQTAKITCQGGSLGSSYAHWYQQKPGQAPVLVIYDDDSRPSGIPERFSGSSSGGTATLTISGAQAEDEGDYYCQSADSSGNAAVFGGGTHLTVL
With B5, the binding result in assay [1] and in assay [2] was “binds” throughout.

B6: 71D6 Fab (Fab, V domains shown)
VH: ELQLVESGGGLVQPGGSLRLSCAASGFTFSSYGMSWVRQAPGKGLEWVSAINSYGGSTSYADSVKGRFTISRDNAKNTLYLQMNSLKPEDTAVYYCAKEVRADLSRYNDYESYDYWGQGTQVTVSS
VL: QPVLNQPSALSVTLGQTAKITCQGGSLGARYAHWYQQKPGQAPVLVIYDDDSRPSGIPERFSGSSSGGTATLTISGAQAEDEGDYYCQSADSSGSVFGGGTHLTVL
As for B6, the binding entry in [1] and in assay [2] was “binds” throughout.

B7: 71D4 Fab (Fab, V domains shown)
VH: ELQLVESGGGLVQPGGSLRLSCAASGFTFSGYGMSWVRQAPGKGLEWVSDINSGGGSTSYADSVKGRFTISRDNAKNTLYLQMNSLKPEDTAVYYCAKDMRLYLARYNDYEAWDYWGQGTQVTVSS
VL: SSALTQPSALSVTLGQTAKITCQGGSLGSSYAHWYQQKPGQAPVLVIYDDDSRPSGIPERFSGSSSGGTATLTISGAQAEDEGDYYCQSADSSGNAAVFGGGTHLTVL
For B7, the binding result in [1] and in [2] was “binds” each time.

B8: 71D4 llama-human chimeric mAb (human IgG1/lambda) (antibody, V domains shown)
VH: ELQLVESGGGLVQPGGSLRLSCAASGFTFSGYGMSWVRQAPGKGLEWVSDINSGGGSTSYADSVKGRFTISRDNAKNTLYLQMNSLKPEDTAVYYCAKDMRLYLARYNDYEAWDYWGQGTQVTVSS
VL: SSALTQPSALSVTLGQTAKITCQGGSLGSSYAHWYQQKPGQAPVLVIYDDDSRPSGIPERFSGSSSGGTATLTISGAQAEDEGDYYCQSADSSGNAAVFGGGTHLTVLQ
Regarding B8, the binding result in assay [3] is “binds”; in assay [4], “binds”; in assay [5], “no binding (tested: 0-20 nM)”; in assay [6], “no binding (tested: 0-20 nM)”; in assay [7], “binds”; in [8], “binds”. The binding entry in [9] is reported as “binds”; in assay [10], “binds”; in assay [11], “no binding (tested: 0-20 nM)”; in [12] it was “binds”; in assay [13], “binds”; in assay [14] it was “binds”. Moreover, the binding result in [15], in assay [16] and in [17] was “binds” each time.

B9: 72F8 Fab (Fab, V domains shown)
VH: ELQLVESGGGLVQPGGSLRLSCAASGFTFSNYVMSWVRQAPGKGLEWVSDTNSGGSTSYADSVKGRFTISRDNAKNTLYLQMNSLKPEDTALYYCARSFFYGMNYWGKGTQVTVSS
VL: QSALTQPPSLSASPGSSVRLTCTLSSGNNIGSYDISWYQQKAGSPPRYLLNYYTDSRKHQDSGVPSRFSGSKDASANAGLLLISGLQPEDEADYYCSAYKSGSYRWVFGGGTHVTVL
B9: the binding entry in [1] and in assay [2] was “binds” in each case.

B10: 71G3 Fab (Fab, V domains shown)
VH: QVQLVESGGGLVQPGGSLRVSCAASGFTFSTYYMSWVRQAPGKGLEWVSDIRTDGGTYYADSVKGRFTMSRDNAKNTLYLQMNSLKPEDTALYYCARTRIFPSGYDYWGQGTQVTVSS
VL: QAVVTQEPSLSVSPGGTVTLTCGLSSGSVTTSNYPGWFQQTPGQAPRTLIYNTNSRHSGVPSRFSGSISGNKAALTIMGAQPEDEADYYCSLYPGSTTVFGGGTHLTVL
Take B10: the binding result in assay [1] and in assay [2] was “binds” in each case.

B11: 76H10 Fab (Fab, V domains shown)
VH: QLQLVESGGGLVQPGGSLRVSCTASGFTFNTYYMTWVRQAPGKGLEWVSDINSGGGTYYADSVKGRFTISRDNAKNTLYLQMNSLKPEDTALYYCVRVRIWPVGYDYWGQGTQVTVSS
VL: QAVVTQEPSLSVSPGGTVTLTCGLSSGSVTTSNYPGWFQQTPGQAPRTLIYNTNNRHSGVPSRFSGSISGNKAALTITGAQPEDEADYYCSLYTGSYTTVFGGGTHLTVL
As for B11, the binding result in assay [1] and in assay [2] was “binds” each time.

(Values after patent publication US20190315873A1 (AGOMAB THERAPEUTICS, published 2019).)
